Laboratory results from patent US20040242697A1, “Methods of reducing pests by use of iodoacetic acid, bromoacetic acid, 2-iodoacetamide, or 2-bromoacetamide” (priority 2003, published 2004).
Some results were stated once for a whole list of compounds, not compound by compound.

System: Fusarium oxysporum f. sp. lycopersici (isolate FP-7)
Experiment: Fusarium petri plate (PDA) assay, radial growth
Type: cell-based
Conditions: compound in potato dextrose agar, radial growth measured 7-10 days
Description: The suspension was then standardized using a Beckman spectrophotometer (430 nm), which has been calibrated using a CDB blank. […] Suspensions were incubated for 24 hr at 28° C. A 10% stock solution of MTT was then added to each aliquot. The suspensions were allowed to incubate for 4 hr, then pelleted, drained, rinsed, and treated with 95% ethanol. The color change, which correlates with spore viability, was assessed using the Beckman spectrophotometer (570 nm), calibrated with 95% ethanol. Benlate (benomyl) was used as an industry standard control. Each treatment was replicated six times and the assay for each compound was repeated. […] A mycelial plug of (cork bore size #3) Fusarium oxysporum f. sp. lycopersici (isolate FP-7) from a 7-day old culture was placed at the center of the plate and the radial growth of the fungus was measured for 7-10 days. Each treatment was replicated six times and the assay for each compound was repeated. Regression analysis was performed using Sigma Plot 2000.
The tetrazolium assay is based on a color change produced with a vital stain on living tissue, i.e. the lower the absorbance, the fewer viable cells.

`NC(=O)CBr` [bromoacetamide, 2-bromoacetamide] was tested, and the “concentration at which fungal growth was eliminated” value was ≥ 100 ppm.
